Data from the supplement of paper PMC12819154, “High-throughput peptide-centric local stability assay extends protein–ligand identification to membrane proteins, tissues and bacteria” (Nature Structural & Molecular Biology, 2025).
The list shows a part of the results, in another mix than the full data. Small differences around the control level are noise.
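Further: lysate desalted by size exclusion to strip endogenous ATP, peptide intensities built from DIA-NN precursor signals, and peptides missing any value discarded before comparison.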

Each compound was assayed against T1, UniProt P0A9I3 (assay: log2 fold change of tryptic peptide abundance, ligand vs vehicle (limited proteolysis) (log2 ratio); higher = more trypsin-susceptible (destabilized)). Conditions: peptide sequence: TQPAENER; peptide start residue: 130; ligand concentration: 5 mM; sample: E. coli desalted lysate; replicate design: treated before aliquoting.
T1 sequence (whole entry): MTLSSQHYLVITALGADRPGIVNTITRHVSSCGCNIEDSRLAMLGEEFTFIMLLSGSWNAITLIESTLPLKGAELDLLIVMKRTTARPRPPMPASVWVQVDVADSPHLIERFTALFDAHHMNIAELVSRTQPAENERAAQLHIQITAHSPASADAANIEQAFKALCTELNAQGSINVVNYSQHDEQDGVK
Experimental: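 HT-PELSA: desalted E. coli K-12 BW25113 lysate (with 12 mM MgCl2) incubated with 5 mM ATP (pH 7) or water for 30 min at 25 C, then a 4 min trypsin pulse at 22 C. Peptides were quantified by DIA-MS (4 replicates). Value is the peptide log2 fold change (treated/control); negative = stabilized. Scale: negative = ligand-stabilized region.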
For `Nc1ncnc2c1ncn2[C@@H]1O[C@H](COP(=O)(O)OP(=O)(O)OP(=O)(O)O)[C@@H](O)[C@H]1O` [adenosine 5'-triphosphate], the log2 fold change was -0.285.
